PubChem BioAssay AID1159596 | NIAID | 2016
The whole screen tested 756 reagents; below is an unselected part. 143 of them (19%) were called active. 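Active means the reporter moved past about ±1.5 in either direction; scores are per single siRNA, not per gene; peptidoglycan dose not given.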 Reagents against one gene are numbered here. No sequences are given here. The record does not give: the amount of reagent.

Aim: 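Which toll-like receptor signalling genes are needed for TNF promoter activity driven by peptidoglycan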 (primary screen)
Cell system: human THP1 B5 monocytic reporter cells made macrophage-like with PMA
Reagents: single siRNA against human genes
Duration: assayed 48 to 72 hours after siRNA transfection; peptidoglycan stimulation lasted 4 hours
Challenge: Staphylococcus aureus peptidoglycan for 4 hours; dose not given
Read-out: 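TNF-alpha promoter firefly/renilla luciferase ratio after 4 h s. aureus peptidoglycan; plate median/MAD scaled, robust z versus negative control wells, mean of replicates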
Direction: TNF reporter z-score: higher = stronger TNF promoter reporter response to peptidoglycan
Rule for the call: In these data the active calls have TNF reporter z-score, replicate mean at about -1.5 or lower, or at about 1.5 or higher
Meaning of the calls: active = reporter shifted beyond cut (either direction); inactive = reporter near control level

With IRF5 #1, what does the deposit list?
TNF reporter z-score, replicate mean: -3.76; outcome: active

What is on record for IRF5 #2?
TNF reporter z-score, replicate mean: -0.63; outcome: inactive

For IRF5 #3, what was measured?
TNF reporter z-score, replicate mean: -1.54; outcome: active

What did the screen give for IRF5 #4?
TNF reporter z-score, replicate mean: -0.298; outcome: inactive

For IRF5 #5, what does the deposit list?
TNF reporter z-score, replicate mean: -1.42; outcome: inactive

What did the screen give for IRF5 #6?
TNF reporter z-score, replicate mean: -1.1; outcome: inactive

What is on record for OTUD5 #1?
TNF reporter z-score, replicate mean: 0.831; outcome: inactive

Which result is listed for OTUD5 #2?
TNF reporter z-score, replicate mean: -1.75; outcome: active

What did the screen give for OTUD5 #3?
TNF reporter z-score, replicate mean: -1.13; outcome: inactive

With OTUD5 #4, what does the deposit list?
TNF reporter z-score, replicate mean: 1.43; outcome: inactive

With OTUD5 #5, what does the deposit list?
TNF reporter z-score, replicate mean: -0.701; outcome: inactive

How did the screen score OTUD5 #6?
TNF reporter z-score, replicate mean: -1.61; outcome: active

For ELF4 #1, what was measured?
TNF reporter z-score, replicate mean: -2.89; outcome: active

How did the screen score ELF4 #2?
TNF reporter z-score, replicate mean: -1.84; outcome: active

What is on record for ELF4 #3?
TNF reporter z-score, replicate mean: -0.792; outcome: inactive

What is on record for ELF4 #4?
TNF reporter z-score, replicate mean: -1.51; outcome: active

For ELF4 #5, what does the deposit list?
TNF reporter z-score, replicate mean: -0.756; outcome: inactive

For ELF4 #6, what was measured?
TNF reporter z-score, replicate mean: -1.32; outcome: inactive

For MAPK10 #1, what does the deposit list?
TNF reporter z-score, replicate mean: -0.954; outcome: inactive

With MAPK10 #2, what was measured?
TNF reporter z-score, replicate mean: 0.285; outcome: inactive

With MAPK10 #3, what does the deposit list?
TNF reporter z-score, replicate mean: -0.565; outcome: inactive

What did the screen give for MAPK10 #4?
TNF reporter z-score, replicate mean: 0.135; outcome: inactive

With MAPK10 #5, what does the deposit list?
TNF reporter z-score, replicate mean: 0.671; outcome: inactive

Which result is listed for MAPK10 #6?
TNF reporter z-score, replicate mean: 0.174; outcome: inactive

How did the screen score ITGAM #1?
TNF reporter z-score, replicate mean: 0.927; outcome: inactive

For ITGAM #2, what was measured?
TNF reporter z-score, replicate mean: -1.39; outcome: inactive

With ITGAM #3, what does the deposit list?
TNF reporter z-score, replicate mean: -0.323; outcome: inactive

With ITGAM #4, what was measured?
TNF reporter z-score, replicate mean: -0.756; outcome: inactive

For ITGAM #5, what does the deposit list?
TNF reporter z-score, replicate mean: -0.223; outcome: inactive

For ITGAM #6, how do the results read?
TNF reporter z-score, replicate mean: 0.506; outcome: inactive

Which result is listed for ETS1 #1?
TNF reporter z-score, replicate mean: -0.571; outcome: inactive

For ETS1 #2, how do the results read?
TNF reporter z-score, replicate mean: -0.842; outcome: inactive

How did the screen score ETS1 #3?
TNF reporter z-score, replicate mean: -0.639; outcome: inactive

With ETS1 #4, how do the results read?
TNF reporter z-score, replicate mean: -0.786; outcome: inactive

Which result is listed for ETS1 #5?
TNF reporter z-score, replicate mean: 1.49; outcome: inactive

For ETS1 #6, how do the results read?
TNF reporter z-score, replicate mean: -2.37; outcome: active

7 entries from above, reformatted.
{"Gene": "OTUD5", "siRNA no.": 2, "TNF reporter z-score, replicate mean": -1.75, "outcome": "active"}
{"Gene": "OTUD5", "siRNA no.": 3, "TNF reporter z-score, replicate mean": -1.13, "outcome": "inactive"}
{"Gene": "OTUD5", "siRNA no.": 4, "TNF reporter z-score, replicate mean": 1.43, "outcome": "inactive"}
{"Gene": "OTUD5", "siRNA no.": 5, "TNF reporter z-score, replicate mean": -0.701, "outcome": "inactive"}
{"Gene": "OTUD5", "siRNA no.": 6, "TNF reporter z-score, replicate mean": -1.61, "outcome": "active"}
{"Gene": "ELF4", "siRNA no.": 1, "TNF reporter z-score, replicate mean": -2.89, "outcome": "active"}
{"Gene": "ELF4", "siRNA no.": 2, "TNF reporter z-score, replicate mean": -1.84, "outcome": "active"}

The list goes on:
Which result is listed for PTK2B #1?
TNF reporter z-score, replicate mean: 0.0665; outcome: inactive

What is on record for PTK2B #2?
TNF reporter z-score, replicate mean: -0.663; outcome: inactive

With PTK2B #3, what was measured?
TNF reporter z-score, replicate mean: 0.251; outcome: inactive

For PTK2B #4, how do the results read?
TNF reporter z-score, replicate mean: -2.87; outcome: active

For PTK2B #5, what does the deposit list?
TNF reporter z-score, replicate mean: -0.718; outcome: inactive

For PTK2B #6, what was measured?
TNF reporter z-score, replicate mean: -0.952; outcome: inactive

For LY96 #1, what was measured?
TNF reporter z-score, replicate mean: -0.0761; outcome: inactive

How did the screen score LY96 #2?
TNF reporter z-score, replicate mean: 0.643; outcome: inactive

For LY96 #3, what does the deposit list?
TNF reporter z-score, replicate mean: 1.38; outcome: inactive

For LY96 #4, what was measured?
TNF reporter z-score, replicate mean: -0.873; outcome: inactive

What did the screen give for LY96 #5?
TNF reporter z-score, replicate mean: -0.279; outcome: inactive

How did the screen score LY96 #6?
TNF reporter z-score, replicate mean: -0.111; outcome: inactive

How did the screen score TAB1 #1?
TNF reporter z-score, replicate mean: -1.18; outcome: inactive

What is on record for TAB1 #2?
TNF reporter z-score, replicate mean: -0.538; outcome: inactive

For TAB1 #3, what does the deposit list?
TNF reporter z-score, replicate mean: 0.00499; outcome: inactive

With TAB1 #4, how do the results read?
TNF reporter z-score, replicate mean: -1.51; outcome: active

Which result is listed for TAB1 #5?
TNF reporter z-score, replicate mean: -0.916; outcome: inactive

How did the screen score TAB1 #6?
TNF reporter z-score, replicate mean: -1.27; outcome: inactive

With TLR9 #1, what does the deposit list?
TNF reporter z-score, replicate mean: -1.27; outcome: inactive

With TLR9 #2, how do the results read?
TNF reporter z-score, replicate mean: 0.517; outcome: inactive

For TLR9 #3, what was measured?
TNF reporter z-score, replicate mean: -0.688; outcome: inactive

For TLR9 #4, what was measured?
TNF reporter z-score, replicate mean: 0.202; outcome: inactive

For TLR9 #5, what was measured?
TNF reporter z-score, replicate mean: 0.0654; outcome: inactive

With TLR9 #6, what does the deposit list?
TNF reporter z-score, replicate mean: 0.968; outcome: inactive
